The target in test [1] is FLAG-tagged EIF4G2 WT (human) (UniProt P78344). Nature of the test: affinity purification with mass spectrometry; FLAG-EIF4G2 WT or mutant transfected into HEK293T; 5 mg lysate in B-buffer (20 mM Hepes-KOH pH 7.6, 100 mM KCl, 0.5 mM EDTA, 0.4% NP-40, 20% glycerol) on FLAG beads, 4°C, 2 h; no RNase; control IP FLAG-mCherry; two separate experiments (WT with four or with two mutants); mutant against WT after correction for EIF4G2 levels in the IP.

By UniProt entry, the sequences of proteins in these tests, tags left out.
UniProt P20042: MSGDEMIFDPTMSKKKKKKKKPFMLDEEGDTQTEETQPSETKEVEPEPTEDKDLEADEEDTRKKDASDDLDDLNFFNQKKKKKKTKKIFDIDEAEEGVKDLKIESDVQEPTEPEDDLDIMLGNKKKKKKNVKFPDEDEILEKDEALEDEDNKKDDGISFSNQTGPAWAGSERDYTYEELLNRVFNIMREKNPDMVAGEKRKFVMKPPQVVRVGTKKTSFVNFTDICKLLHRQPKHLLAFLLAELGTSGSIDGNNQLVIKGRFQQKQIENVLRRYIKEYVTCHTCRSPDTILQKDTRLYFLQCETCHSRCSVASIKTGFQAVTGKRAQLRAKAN
UniProt O75821: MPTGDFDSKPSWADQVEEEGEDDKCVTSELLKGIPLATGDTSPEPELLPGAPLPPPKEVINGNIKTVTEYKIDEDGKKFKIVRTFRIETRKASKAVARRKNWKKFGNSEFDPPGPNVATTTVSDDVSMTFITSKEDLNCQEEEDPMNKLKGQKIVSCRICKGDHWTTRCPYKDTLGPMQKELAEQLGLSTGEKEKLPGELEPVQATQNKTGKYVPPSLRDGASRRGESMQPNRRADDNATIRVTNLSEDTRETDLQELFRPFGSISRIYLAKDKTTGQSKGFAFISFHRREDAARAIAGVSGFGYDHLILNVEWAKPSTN
UniProt O15372: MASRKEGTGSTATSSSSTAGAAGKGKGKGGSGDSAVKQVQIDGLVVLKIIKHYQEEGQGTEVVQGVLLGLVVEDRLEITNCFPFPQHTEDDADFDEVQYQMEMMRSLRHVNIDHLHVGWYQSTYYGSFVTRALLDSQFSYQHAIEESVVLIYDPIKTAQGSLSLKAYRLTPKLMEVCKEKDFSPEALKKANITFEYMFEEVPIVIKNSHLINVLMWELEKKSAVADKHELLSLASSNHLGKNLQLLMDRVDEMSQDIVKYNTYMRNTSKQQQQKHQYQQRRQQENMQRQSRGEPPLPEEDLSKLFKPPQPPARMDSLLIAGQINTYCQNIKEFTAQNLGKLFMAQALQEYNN
UniProt O75822: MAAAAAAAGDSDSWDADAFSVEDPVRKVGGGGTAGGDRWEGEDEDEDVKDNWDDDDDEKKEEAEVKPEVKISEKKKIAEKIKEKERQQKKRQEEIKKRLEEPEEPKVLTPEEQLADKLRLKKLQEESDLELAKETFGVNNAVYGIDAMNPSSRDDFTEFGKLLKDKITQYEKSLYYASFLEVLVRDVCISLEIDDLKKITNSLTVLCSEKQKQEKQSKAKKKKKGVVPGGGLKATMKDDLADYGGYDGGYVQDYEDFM
UniProt P60842: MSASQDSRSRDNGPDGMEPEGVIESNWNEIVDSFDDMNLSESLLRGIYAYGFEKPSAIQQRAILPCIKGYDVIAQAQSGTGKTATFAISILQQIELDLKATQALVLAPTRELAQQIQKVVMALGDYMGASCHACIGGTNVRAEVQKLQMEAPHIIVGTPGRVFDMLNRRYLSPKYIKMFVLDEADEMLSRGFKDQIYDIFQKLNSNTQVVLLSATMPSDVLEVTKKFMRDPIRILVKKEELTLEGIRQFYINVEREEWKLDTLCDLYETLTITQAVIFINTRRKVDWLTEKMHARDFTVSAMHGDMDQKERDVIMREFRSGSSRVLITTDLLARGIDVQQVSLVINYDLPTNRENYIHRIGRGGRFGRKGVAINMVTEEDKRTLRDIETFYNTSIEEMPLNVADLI
UniProt Q14240: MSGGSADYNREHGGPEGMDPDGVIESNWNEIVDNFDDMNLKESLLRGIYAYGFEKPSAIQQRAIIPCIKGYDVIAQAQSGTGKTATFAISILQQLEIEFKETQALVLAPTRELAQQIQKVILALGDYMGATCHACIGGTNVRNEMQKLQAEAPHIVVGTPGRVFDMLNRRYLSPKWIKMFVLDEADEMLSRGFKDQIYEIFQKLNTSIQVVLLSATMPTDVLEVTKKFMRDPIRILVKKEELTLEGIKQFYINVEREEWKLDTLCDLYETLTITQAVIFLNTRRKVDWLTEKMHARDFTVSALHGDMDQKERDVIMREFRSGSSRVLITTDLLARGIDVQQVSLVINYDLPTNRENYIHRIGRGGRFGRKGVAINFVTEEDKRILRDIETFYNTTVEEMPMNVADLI
UniProt Q9Y520: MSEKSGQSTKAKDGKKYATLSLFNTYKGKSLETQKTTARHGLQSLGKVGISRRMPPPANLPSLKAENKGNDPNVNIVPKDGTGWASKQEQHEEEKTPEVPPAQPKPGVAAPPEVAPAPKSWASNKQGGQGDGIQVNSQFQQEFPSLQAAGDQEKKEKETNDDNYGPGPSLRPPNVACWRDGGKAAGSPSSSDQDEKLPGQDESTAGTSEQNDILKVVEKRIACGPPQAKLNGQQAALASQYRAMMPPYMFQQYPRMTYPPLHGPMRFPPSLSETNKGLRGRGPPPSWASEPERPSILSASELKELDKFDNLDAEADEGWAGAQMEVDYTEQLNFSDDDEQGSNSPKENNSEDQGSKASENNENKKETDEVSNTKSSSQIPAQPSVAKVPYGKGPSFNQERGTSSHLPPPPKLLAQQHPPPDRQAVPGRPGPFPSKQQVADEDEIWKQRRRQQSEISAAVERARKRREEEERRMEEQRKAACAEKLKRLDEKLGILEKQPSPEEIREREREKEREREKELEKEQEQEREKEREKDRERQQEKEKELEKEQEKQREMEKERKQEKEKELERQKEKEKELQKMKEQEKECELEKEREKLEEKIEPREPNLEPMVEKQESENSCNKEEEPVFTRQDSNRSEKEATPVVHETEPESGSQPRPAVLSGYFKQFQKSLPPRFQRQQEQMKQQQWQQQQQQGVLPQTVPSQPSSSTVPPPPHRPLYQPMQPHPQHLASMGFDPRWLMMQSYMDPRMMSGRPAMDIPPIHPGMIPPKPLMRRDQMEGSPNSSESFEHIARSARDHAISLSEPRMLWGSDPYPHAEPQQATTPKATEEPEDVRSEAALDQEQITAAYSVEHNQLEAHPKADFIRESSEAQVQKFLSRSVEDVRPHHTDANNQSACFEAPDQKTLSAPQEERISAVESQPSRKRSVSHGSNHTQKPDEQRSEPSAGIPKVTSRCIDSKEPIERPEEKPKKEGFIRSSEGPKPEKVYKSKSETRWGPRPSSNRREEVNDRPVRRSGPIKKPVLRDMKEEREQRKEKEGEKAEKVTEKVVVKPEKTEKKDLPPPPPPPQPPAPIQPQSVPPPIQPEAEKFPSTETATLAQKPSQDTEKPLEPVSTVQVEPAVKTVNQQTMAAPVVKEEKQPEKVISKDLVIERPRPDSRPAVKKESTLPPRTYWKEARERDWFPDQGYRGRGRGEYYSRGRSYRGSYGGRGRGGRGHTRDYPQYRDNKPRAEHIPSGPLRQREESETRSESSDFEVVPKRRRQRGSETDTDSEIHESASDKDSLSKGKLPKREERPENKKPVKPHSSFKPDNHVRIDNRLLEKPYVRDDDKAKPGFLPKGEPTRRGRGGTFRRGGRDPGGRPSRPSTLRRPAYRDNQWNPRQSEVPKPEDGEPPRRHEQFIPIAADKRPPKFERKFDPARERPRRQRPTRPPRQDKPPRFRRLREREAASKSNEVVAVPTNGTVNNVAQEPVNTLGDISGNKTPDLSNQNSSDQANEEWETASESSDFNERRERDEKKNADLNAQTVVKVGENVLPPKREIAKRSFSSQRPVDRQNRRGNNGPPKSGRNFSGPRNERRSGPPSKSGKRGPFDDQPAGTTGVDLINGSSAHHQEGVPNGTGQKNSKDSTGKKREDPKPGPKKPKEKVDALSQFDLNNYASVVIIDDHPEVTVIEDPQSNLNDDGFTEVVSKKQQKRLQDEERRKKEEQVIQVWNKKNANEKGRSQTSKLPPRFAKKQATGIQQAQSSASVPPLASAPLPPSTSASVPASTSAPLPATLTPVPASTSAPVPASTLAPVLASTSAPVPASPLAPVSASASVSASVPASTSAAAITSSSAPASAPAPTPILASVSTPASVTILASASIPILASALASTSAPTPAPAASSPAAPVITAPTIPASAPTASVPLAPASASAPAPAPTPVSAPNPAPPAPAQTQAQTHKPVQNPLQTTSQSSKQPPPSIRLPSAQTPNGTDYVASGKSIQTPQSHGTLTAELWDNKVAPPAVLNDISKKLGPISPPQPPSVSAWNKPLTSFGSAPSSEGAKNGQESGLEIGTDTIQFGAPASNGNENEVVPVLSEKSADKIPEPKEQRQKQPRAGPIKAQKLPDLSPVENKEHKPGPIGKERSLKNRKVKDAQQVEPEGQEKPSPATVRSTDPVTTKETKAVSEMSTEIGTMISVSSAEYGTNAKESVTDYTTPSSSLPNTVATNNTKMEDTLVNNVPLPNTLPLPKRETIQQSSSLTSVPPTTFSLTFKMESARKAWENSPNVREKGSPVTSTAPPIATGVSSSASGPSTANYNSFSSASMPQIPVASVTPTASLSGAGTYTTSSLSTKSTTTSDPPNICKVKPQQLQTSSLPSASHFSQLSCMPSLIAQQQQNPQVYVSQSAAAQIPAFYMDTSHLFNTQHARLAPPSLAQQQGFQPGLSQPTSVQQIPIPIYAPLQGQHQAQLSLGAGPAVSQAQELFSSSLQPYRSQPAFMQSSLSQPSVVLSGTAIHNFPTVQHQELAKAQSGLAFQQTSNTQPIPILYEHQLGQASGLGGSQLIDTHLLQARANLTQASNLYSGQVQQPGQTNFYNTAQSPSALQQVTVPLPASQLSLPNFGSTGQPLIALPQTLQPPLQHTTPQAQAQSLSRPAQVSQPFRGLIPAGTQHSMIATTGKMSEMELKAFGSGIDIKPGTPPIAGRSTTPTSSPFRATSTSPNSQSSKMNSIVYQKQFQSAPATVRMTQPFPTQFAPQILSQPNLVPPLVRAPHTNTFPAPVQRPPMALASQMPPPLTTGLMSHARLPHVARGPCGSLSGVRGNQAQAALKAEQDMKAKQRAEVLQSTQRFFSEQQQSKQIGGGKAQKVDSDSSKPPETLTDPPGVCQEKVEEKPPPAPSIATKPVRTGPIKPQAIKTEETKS
UniProt Q86US8: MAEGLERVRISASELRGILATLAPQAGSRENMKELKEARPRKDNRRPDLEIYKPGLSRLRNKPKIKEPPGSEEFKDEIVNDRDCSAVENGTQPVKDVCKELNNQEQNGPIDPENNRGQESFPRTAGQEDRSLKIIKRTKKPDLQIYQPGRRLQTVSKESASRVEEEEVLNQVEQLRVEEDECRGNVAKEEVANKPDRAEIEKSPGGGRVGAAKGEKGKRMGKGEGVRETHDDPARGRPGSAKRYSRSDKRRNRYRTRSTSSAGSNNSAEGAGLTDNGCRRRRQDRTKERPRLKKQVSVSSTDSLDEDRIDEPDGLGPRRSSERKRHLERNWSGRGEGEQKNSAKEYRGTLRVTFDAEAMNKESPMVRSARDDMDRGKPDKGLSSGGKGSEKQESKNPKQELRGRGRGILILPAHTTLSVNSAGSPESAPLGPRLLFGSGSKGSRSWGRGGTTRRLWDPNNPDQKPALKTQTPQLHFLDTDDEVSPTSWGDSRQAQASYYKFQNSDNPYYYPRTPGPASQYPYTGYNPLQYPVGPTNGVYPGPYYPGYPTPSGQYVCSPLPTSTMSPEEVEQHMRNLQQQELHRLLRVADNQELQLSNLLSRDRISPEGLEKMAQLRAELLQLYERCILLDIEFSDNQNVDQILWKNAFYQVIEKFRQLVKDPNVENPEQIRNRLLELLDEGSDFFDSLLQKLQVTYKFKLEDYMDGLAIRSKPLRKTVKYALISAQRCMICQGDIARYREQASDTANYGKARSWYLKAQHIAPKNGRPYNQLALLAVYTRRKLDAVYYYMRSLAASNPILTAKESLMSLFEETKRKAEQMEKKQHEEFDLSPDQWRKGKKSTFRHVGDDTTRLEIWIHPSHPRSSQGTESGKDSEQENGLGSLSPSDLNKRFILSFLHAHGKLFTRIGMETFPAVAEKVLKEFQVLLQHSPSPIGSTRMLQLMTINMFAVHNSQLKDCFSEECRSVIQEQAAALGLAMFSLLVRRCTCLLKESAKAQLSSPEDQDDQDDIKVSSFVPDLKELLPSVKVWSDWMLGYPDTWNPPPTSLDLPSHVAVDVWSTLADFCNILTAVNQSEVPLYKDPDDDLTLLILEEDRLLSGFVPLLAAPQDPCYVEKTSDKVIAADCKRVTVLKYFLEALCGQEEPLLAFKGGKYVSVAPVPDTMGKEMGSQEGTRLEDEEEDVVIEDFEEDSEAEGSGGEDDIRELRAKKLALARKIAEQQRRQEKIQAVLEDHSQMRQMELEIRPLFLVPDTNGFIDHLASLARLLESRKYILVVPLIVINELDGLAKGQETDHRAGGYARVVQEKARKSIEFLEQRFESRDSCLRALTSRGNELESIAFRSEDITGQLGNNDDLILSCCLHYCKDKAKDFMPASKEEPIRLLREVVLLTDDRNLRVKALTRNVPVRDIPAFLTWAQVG

Test [2] addresses T1, FLAG-tagged EIF4G2 WT (human), P78344.
T1 chain: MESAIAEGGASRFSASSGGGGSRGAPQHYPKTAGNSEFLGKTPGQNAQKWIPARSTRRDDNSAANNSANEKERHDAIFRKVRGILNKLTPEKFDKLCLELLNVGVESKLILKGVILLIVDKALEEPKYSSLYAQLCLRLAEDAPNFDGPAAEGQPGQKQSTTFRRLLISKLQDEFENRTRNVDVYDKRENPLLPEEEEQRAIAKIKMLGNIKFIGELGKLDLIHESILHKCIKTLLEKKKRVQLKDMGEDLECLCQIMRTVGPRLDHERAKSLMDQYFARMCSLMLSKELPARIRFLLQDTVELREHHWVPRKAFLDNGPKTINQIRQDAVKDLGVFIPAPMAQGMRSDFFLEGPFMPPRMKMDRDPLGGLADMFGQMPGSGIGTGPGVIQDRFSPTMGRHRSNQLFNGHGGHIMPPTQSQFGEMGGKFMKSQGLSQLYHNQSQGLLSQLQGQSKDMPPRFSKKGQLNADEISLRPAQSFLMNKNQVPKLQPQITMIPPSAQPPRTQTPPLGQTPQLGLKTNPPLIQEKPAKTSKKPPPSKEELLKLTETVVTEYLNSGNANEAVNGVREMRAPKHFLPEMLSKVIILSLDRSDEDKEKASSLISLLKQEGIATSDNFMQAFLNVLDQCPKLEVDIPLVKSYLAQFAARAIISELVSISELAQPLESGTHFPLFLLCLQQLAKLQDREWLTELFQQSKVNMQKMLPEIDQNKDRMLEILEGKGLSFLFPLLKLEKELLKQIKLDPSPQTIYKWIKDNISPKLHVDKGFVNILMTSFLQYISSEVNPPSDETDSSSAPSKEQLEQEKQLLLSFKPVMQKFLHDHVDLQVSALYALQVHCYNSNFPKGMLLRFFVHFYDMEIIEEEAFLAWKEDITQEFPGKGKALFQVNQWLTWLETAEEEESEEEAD
Described as above. Conditions: remark: other sources report otherwise.

No constants are given. Whether binding was seen depends on the method and setting. Binding seen in cells or lysates may run through a third protein. These calls come from enrichment with a bait or labelling near it, and not all partners need be listed. For part of these data: Sequences can lack the tags named with a protein.

For ASCC3 (from UniProt Q8N3C0 1-2202), the binding result in test [1] is recorded as “binds”.

On to EIF2S2 (from UniProt P20042 1-333), for which the binding result in test [1] was “binds”.

For EIF3G (from UniProt O75821 1-320), in test [1], the binding entry is listed as “binds”.

Consider EIF3H (from UniProt O15372 1-352), for which, in test [1], the binding result is on record as “binds”.

In the case of EIF3J (from UniProt O75822 1-258), the binding entry in test [1] is “binds”.

For the molecule EIF4A1 (from UniProt P60842 1-406), in test [1], the binding result is “binds”.

In the case of EIF4A2 (from UniProt Q14240 1-407), the binding result in test [1] was “binds”.

In the case of PRRC2C (from UniProt Q9Y520 1-2896), in test [1], the binding result is given as “binds”.

SMG6 (from UniProt Q86US8 1-1419): the binding entry in test [1] was “binds”.

B1: PDCD4, Q53EL6 1-469 (protein)
chain: MDVENEQILNVNPADPDNLSDSLFSGDEENAGTEEIKNEINGNWISASSINEARINAKAKRRLRKNSSRDSGRGDSVSDSGSDALRSGLTVPTSPKGRLLDRRSRSGKGRGLPKKGGAGGKGVWGTPGQVYDVEEVDVKDPNYDDDQENCVYETVVLPLDERAFEKTLTPIIQEYFEHGDTNEVAEMLRDLNLGEMKSGVPVLAVSLALEGKASHREMTSKLLSDLCGTVMSTTDVEKSFDKLLKDLPELALDTPRAPQLVGQFIARAVGDGILCNTYIDSYKGTVDCVQARAALDKATVLLSMSKGGKRKDSVWGSGGGQQSVNHLVKEIDMLLKEYLLSGDISEAEHCLKELEVPHFHHELVYEAIIMVLESTGESTFKMILDLLKSLWKSSTITVDQMKRGYERIYNEIPDINLDVPHSYSVLERFVEECFQAGIISKQLRDLCPSRGRKRFVSEGDGGRLKPESY
As for B1, in test [2], the binding entry is reported as “binds”.

B2: ASCC2 (protein, UniProt Q9H1I8 1-757)
chain: MPALPLDQLQITHKDPKTGKLRTSPALHPEQKADRYFVLYKPPPKDNIPALVEEYLERATFVANDLDWLLALPHDKFWCQVIFDETLQKCLDSYLRYVPRKFDEGVASAPEVVDMQKRLHRSVFLTFLRMSTHKESKDHFISPSAFGEILYNNFLFDIPKILDLCVLFGKGNSPLLQKMIGNIFTQQPSYYSDLDETLPTILQVFSNILQHCGLQGDGANTTPQKLEERGRLTPSDMPLLELKDIVLYLCDTCTTLWAFLDIFPLACQTFQKHDFCYRLASFYEAAIPEMESAIKKRRLEDSKLLGDLWQRLSHSRKKLMEIFHIILNQICLLPILESSCDNIQGFIEEFLQIFSSLLQEKRFLRDYDALFPVAEDISLLQQASSVLDETRTAYILQAVESAWEGVDRRKATDAKDPSVIEEPNGEPNGVTVTAEAVSQASSHPENSEEEECMGAAAAVGPAMCGVELDSLISQVKDLLPDLGEGFILACLEYYHYDPEQVINNILEERLAPTLSQLDRNLDREMKPDPTPLLTSRHNVFQNDEFDVFSRDSVDLSRVHKGKSTRKEENTRSLLNDKRAVAAQRQRYEQYSVVVEEVPLQPGESLPYHSVYYEDEYDDTYDGNQVGANDADSDDELISRRPFTIPQVLRTKVPREGQEEDDDDEEDDADEEAPKPDHFVQDPAVLREKAEARRMAFLAKKGYRHDSSTAVAGSPRGHGQSRETTQERRKKEANKATRANHNRRTMADRKRSKGMIPS
For B2, in test [1], the binding entry is “binds”.

B3: TSR1 (protein, UniProt Q2NL82 1-804)
chain: MAAHRPGPLKQQNKAHKGGRHRGRGSAQRDGKGRLALKTLSKKVRKELSRVDQRHRASQLRKQKKEAVLAEKRQLGGKDGPPHQVLVVPLHSRISLPEAMQLLQDRDTGTVHLNELGNTQNFMLLCPRLKHRWFFTSARPGDLHVVLDMAKVADTILFLLDPLEGWDSTGDYCLSCLFAQGLPTYTLAVQGISGLPLKKQIDTRKKLSKAVEKRFPHDKLLLLDTQQEAGMLLRQLANQKQQHLAFRDRRAYLFAHAVDFVPSEENNLVGTLKISGYVRGQTLNVNRLLHIVGYGDFQMKQIDAPGDPFPLNPRGIKPQKDPDMAMEICATDAVDDMEEGLKVLMKADPGRQESLQAEVIPDPMEGEQTWPTEEELSEAKDFLKESSKVVKKVPKGTSSYQAEWILDGGSQSGGEGDEYEYDDMEHEDFMEEESQDESSEEEEEYETMTIGESVHDDLYDKKVDEEAEAKMLEKYKQERLEEMFPDEVDTPRDVAARIRFQKYRGLKSFRTSPWDPKENLPQDYARIFQFQNFTNTRKSIFKEVEEKEVEGAEVGWYVTLHVSEVPVSVVECFRQGTPLIAFSLLPHEQKMSVLNMVVRRDPGNTEPVKAKEELIFHCGFRRFRASPLFSQHTAADKHKLQRFLTADMALVATVYAPITFPPASVLLFKQKSNGMHSLIATGHLMSVDPDRMVIKRVVLSGHPFKIFTKMAVVRYMFFNREDVLWFKPVELRTKWGRRGHIKEPLGTHGHMKCSFDGKLKSQDTVLMNLYKRVFPKWTYDPYVPEPVPWLKSEISSTVPQGGME
With B3, the binding result in test [1] is recorded as “binds”.
